PubChem BioAssay AID1259308 – NCATS, 2017
Shown is an unselected part of about 59,000 reagents tested. About 1,510 of them (2.6%) were called active. 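Calls use total luciferase alone and ignore viability, so some active siRNAs may act by altering cell number.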

- Purpose: 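Knock-downs that increase output of a recombinant reporter protein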 (primary screen)
- System: human HEK293 embryonic kidney cells stably expressing firefly luciferase (HEK-CMV-Luc2-Hygro)
- Reagents: single siRNA against human genes, 0.8 pmol siRNA per well
- Time to read-out: 72 h
- Measured: 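Reporter luminescence and viable-cell signal on separate replicate plates, given as percent of non-targeting control and median/MAD z-scores, plus per-cell luciferase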
- Reading the numbers: total luciferase, z-score and total luciferase, % of control: higher = more reporter protein produced; luciferase per cell, z-score: higher = more reporter output per viable cell; viable cells, % of control: higher = more viable cells
- Rule for the call: 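An siRNA counts as active if its total luciferase robust z-score exceeds 3; genes with two or more such siRNAs out of three were retested with fresh siRNAs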
- Meaning of the calls: active = raised luciferase; inactive = no rise

The opening 5 records, ahead of the listing:
| gene symbol | PubChem SID | total luciferase, z-score | total luciferase, % of control | luciferase per cell, z-score | viable cells, % of control | call |
| --- | --- | --- | --- | --- | --- | --- |
| ETF1 | SID160762034 | -2.36 | 35 | -2.49 | 75.4 | inactive |
| ETF1 | SID160762044 | -2.65 | 29.1 | -3.57 | 83.4 | inactive |
| ETF1 | SID160762056 | -2.28 | 36.5 | -1.88 | 67 | inactive |
| MRPS27 | SID160735462 | 0.397 | 89.8 | -0.263 | 108 | inactive |
| MRPS27 | SID160735463 | -0.743 | 67.1 | -0.243 | 79.9 | inactive |

The list itself, repeating the preview:
| gene symbol | PubChem SID | total luciferase, z-score | total luciferase, % of control | luciferase per cell, z-score | viable cells, % of control | call |
| --- | --- | --- | --- | --- | --- | --- |
| ETF1 | SID160762034 | -2.36 | 35 | -2.49 | 75.4 | inactive |
| ETF1 | SID160762044 | -2.65 | 29.1 | -3.57 | 83.4 | inactive |
| ETF1 | SID160762056 | -2.28 | 36.5 | -1.88 | 67 | inactive |
| MRPS27 | SID160735462 | 0.397 | 89.8 | -0.263 | 108 | inactive |
| MRPS27 | SID160735463 | -0.743 | 67.1 | -0.243 | 79.9 | inactive |
| MRPS27 | SID160735464 | 0.653 | 94.9 | 0.208 | 100 | inactive |
| TEDDM1 | SID160732433 | 2.15 | 125 | 1.03 | 106 | inactive |
| TEDDM1 | SID160756660 | 1.79 | 118 | 1.14 | 97.4 | inactive |
| TEDDM1 | SID160756662 | -0.731 | 67.4 | -0.513 | 86.1 | inactive |
| RTL8A | SID160732854 | 1.16 | 105 | 1.36 | 82 | inactive |
| RTL8A | SID160737581 | -0.765 | 66.7 | -0.513 | 85.3 | inactive |
| RTL8A | SID160737582 | 0.914 | 100 | 0.443 | 99.5 | inactive |
| NDP | SID160777829 | 4.06 | 163 | 2.54 | 93.2 | active |
| NDP | SID160777830 | -0.412 | 73.7 | -1.13 | 111 | inactive |
| NDP | SID160777832 | -0.0878 | 80.1 | -0.269 | 96.1 | inactive |
| SRSF6 | SID160716618 | 2.39 | 129 | 1.02 | 111 | inactive |
| SRSF6 | SID160716619 | -0.0199 | 81.5 | 0.0235 | 90.5 | inactive |
| SRSF6 | SID160716620 | -0.67 | 68.6 | -1.24 | 106 | inactive |
| NFKBIL1 | SID160723954 | 0.441 | 90.6 | 0.16 | 97.1 | inactive |
| NFKBIL1 | SID160778034 | -0.33 | 75.3 | -0.354 | 92.4 | inactive |
| NFKBIL1 | SID160778035 | 0.0956 | 83.8 | -0.07 | 95.4 | inactive |
| ZNF334 | SID160744154 | -0.0738 | 80.4 | -0.155 | 93.6 | inactive |
| ZNF334 | SID160744155 | -0.815 | 65.7 | -0.331 | 80.1 | inactive |
| ZNF334 | SID160744156 | -1.15 | 59 | 0.413 | 59.1 | inactive |
| ERBB4 | SID160761439 | 0.85 | 98.8 | 0.415 | 99 | inactive |
| ERBB4 | SID160761450 | -1.19 | 58.2 | -1.81 | 105 | inactive |
| ERBB4 | SID160761461 | -0.596 | 70 | -0.853 | 98 | inactive |
| NPTXR | SID160736337 | 0.806 | 97.9 | 0.276 | 102 | inactive |
| NPTXR | SID160736338 | 0.332 | 88.5 | 0.0454 | 97.7 | inactive |
| NPTXR | SID160736339 | 0.612 | 94.1 | 0.767 | 85.9 | inactive |
| RAB34 | SID160751455 | -1.18 | 58.4 | -1.5 | 97 | inactive |
| RAB34 | SID160751456 | 0.707 | 96 | 0.64 | 90.6 | inactive |
| RAB34 | SID160751457 | -2.03 | 41.6 | -1.94 | 77.5 | inactive |
| HABP2 | SID160774825 | 1.26 | 107 | 1.15 | 88.3 | inactive |
| HABP2 | SID160774826 | -0.123 | 79.4 | -0.165 | 92.7 | inactive |
| HABP2 | SID160774827 | 2.18 | 125 | 1.16 | 103 | inactive |
| UBE2Z | SID160748321 | -0.716 | 67.6 | -0.873 | 95.1 | inactive |
| UBE2Z | SID160748323 | -0.327 | 75.4 | -0.24 | 89.7 | inactive |
| UBE2Z | SID160748324 | -2.11 | 39.9 | -2.82 | 93.7 | inactive |
| RPL9 | SID160716039 | -2.47 | 32.8 | -0.902 | 46.4 | inactive |
| RPL9 | SID160716040 | -2.51 | 32 | -0.0108 | 35.9 | inactive |
| RPL9 | SID160733706 | -2.62 | 29.8 | -1.52 | 49.8 | inactive |
| ZFP82 | SID160763315 | 0.00804 | 82 | 0.27 | 85.4 | inactive |
| ZFP82 | SID160763316 | 0.731 | 96.4 | 1.19 | 78.7 | inactive |
| ZFP82 | SID160763318 | 1.58 | 113 | 1.59 | 83.2 | inactive |
| C12orf60 | SID160758178 | -1.26 | 56.8 | -0.955 | 81.6 | inactive |
| C12orf60 | SID160758179 | -0.072 | 80.5 | -0.185 | 94.4 | inactive |
| C12orf60 | SID160758180 | -0.88 | 64.4 | -0.81 | 89 | inactive |
| TMEM59 | SID160722422 | -1.38 | 54.5 | -1.72 | 95.8 | inactive |
| TMEM59 | SID160722423 | -0.525 | 71.4 | -0.286 | 86.1 | inactive |
| TMEM59 | SID160735233 | 0.977 | 101 | 0.516 | 98.8 | inactive |
| PRSS1 | SID160715099 | 0.0964 | 83.8 | -0.208 | 98.9 | inactive |
| PRSS1 | SID160715100 | 0.277 | 87.4 | 1.39 | 67.6 | inactive |
| PRSS1 | SID160715101 | 1.33 | 108 | 0.271 | 113 | inactive |
| CACNG1 | SID160735552 | 0.347 | 88.8 | 0.298 | 91.7 | inactive |
| CACNG1 | SID160735562 | 1.04 | 102 | 0.895 | 90.5 | inactive |
| CACNG1 | SID160735572 | -0.132 | 79.3 | -0.679 | 106 | inactive |
